# Among all 31,000 sequences or so, about 1,400 (4.5%) were called active.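 Rule for the calls: active = median seed-adjusted z-score above 1 or below -1; inactive = the rest.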 The list shows a part of the results.
# Test: Novel Modifiers of Survival Motor Neuron (SMN) Protein: Gene Identification via Genome-wide siRNA Screen;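 note: luminescence tracks full-length SMN protein made from the SMN2 reporter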
# Details: HEK293T SMN2-luciferase reporter, siRNA knockdown, 72 h; actives lie on both sides
# Procedure, shortened: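 HEK293T cells stably carrying an SMN2 promoter/splicing cassette–luciferase reporter were reverse-transfected with 1 pmol siRNA per well (druggable-genome library, 3 siRNAs per gene) and grown 72 h at 37 °C. Luminescence, normalized to negative-control siRNA and log10-transformed, was scored as MAD.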
row,Sequence,median seed-adjusted z-score
1,GCAUAUCAUGGAGCAUCUATT against MCFD2,inactive: -0.0111
2,AAACCUACUGGACCCGUGATT against CRABP1,inactive: -0.625
3,CAAGCAAUACAAGUACUAATT against MEIS2,inactive: 0.475
4,CGCUGAAUCCUUCAAGGAATT against OPHN1,inactive: 0.692
5,AAGACAGAAUUGUGGUUUUTT against TFF1,inactive: -0.469
6,UCCUUACCGUGGGCACUGATT against HMOX1,inactive: 0.45
7,AGCUGCUUCUGUUCAAUAATT against AMIGO3,inactive: 0.752
8,CAGUGGAUCUCAACAAGAUTT against KRT36,inactive: 0.766
9,CAAUCCGAACAACAACGUATT against RFX3,inactive: 0.17
10,GGAAGAACCUAUAGCCUAUTT against PTPRO,inactive: 0.387
11,GUCCUUCCGUAAAAAGUAUTT against PEBP1,inactive: 0.641
12,CCAACUAUGUGGUAGCCUUTT against SLC22A4,inactive: -0.474
13,CCAACAACAUUACGAAAUUTT against SLC22A3,inactive: 0.126
14,GACCUUCAGUUGGAGCUGATT against ID1,inactive: 0
15,GAUGUUCAGUAUAUCUAUATT against TIMP4,inactive: -0.112
16,GACCUAUCCUUGCACCAGATT against ECT2,inactive: 0.04
17,UGGGAAUUUUGAUUACAUUTT against MS4A5,inactive: 0.226
18,GGCUCGCAGUAUGAACUGATT against IRX1,inactive: 0.673
19,GGGUCUUCCCUCAAAGUAATT against SIRT1,inactive: 0
20,CCACAGACCCAACCAGUUATT against OAT,inactive: -0.0231
21,CAGAAGUUCUCAGACCUAATT against ZNF721,inactive: 0.404
22,GGAUAAACCUAUGCAUACATT against CCNF,inactive: -0.435

row,Sequence,median seed-adjusted z-score
1,CAUAAGGAGAGAGAUCUUATT against THRAP3,inactive: -0.852
2,CAAUCGACCCUCCAAGAUATT against DDX19A,inactive: 0.183
3,GAGAACAUGUUGUUCCGCUTT against SSPO,inactive: 0.397
4,GGCUAACUCGAUUUAAGCATT against TIGD2,inactive: -0.13
5,GAUUCUGAUUCGCAACCGATT against NOTCH2,inactive: 0.000598
6,GAACAGCCCUUUAAAUUCATT against ETV1,inactive: 0.167
7,GGAUGACAUCUUAAACUUATT against IKBKB,inactive: 0.0896
8,CGUCAGACUUUUAAAUCCATT against UPP1,inactive: -0.135
9,CAACCAGUUGACUACCAUGTT against FOXB1,inactive: 0.223
10,AGAACAUCGACUUCAGCAATT against SOX8,inactive: 0.186
11,GAGAAACCUUUAUUCGAUATT against GLULD1,inactive: -0.332
12,GGUUGUCCUUGAGUAAUAATT against IRAK1,inactive: -0.232
13,GCCUUGUACAAGAACCCAATT against PYGM,inactive: -0.0689
14,AGGCCUCACGUUUUCCAUATT against PMM2,inactive: 0.448
15,GCAUGACCGCUUAUCCCAATT against SLC6A5,inactive: -0.204
16,CAAGCUCUUUGGUCAAGAATT against SNX4,inactive: -0.144
17,GGUAUUUCCUCGCAACAGATT against METT10D,inactive: 0.455
18,GGAAGUGCCUUAUGCCUAUTT against CHIA,inactive: 0.479
19,CACUUUGUCCUAAAGAUUUTT against GTDC1,inactive: 0.2
20,GCAUGAGUGCUAUCAGAUATT against PIPOX,active: 1.06
21,GGCCUACACUUUCAGUGAATT against FCRLA,inactive: 0.03
22,GGAGUUACAAGUUAUUUCATT against IL15,inactive: -0.139

# Laid out differently: entries from further up
row	Sequence	median seed-adjusted z-score
5	AAGACAGAAUUGUGGUUUUTT against TFF1	inactive: -0.469
6	UCCUUACCGUGGGCACUGATT against HMOX1	inactive: 0.45
7	AGCUGCUUCUGUUCAAUAATT against AMIGO3	inactive: 0.752
8	CAGUGGAUCUCAACAAGAUTT against KRT36	inactive: 0.766

# Continuation.

row,Sequence,median seed-adjusted z-score
1,CAUUAACAACCAAAGGAAATT against FDX1,inactive: -0.0549
2,GCUGUUGACUCACAAUGAUTT against GCLM,inactive: 0.0509
3,CCUCAGUUCGAAUCUGGUATT against PPEF1,inactive: -0.58
4,CAUACGACAUUGACAUUCATT against PCDHB1,inactive: 0.342
5,GGCUUAGCGUAAGCAGUGATT against MKX,inactive: 0.00623
6,GGCUGAGAUCGUUUUCAAATT against MRPS17,inactive: -0.313
7,GGAGCUACUGAGAACAUAATT against HOXD4,inactive: 0.566
8,GGAUGUUGAUGGAUCAGGUTT against DHX32,inactive: -0.12
9,GGAAGGACGAUGUUAUUAATT against RLN1,inactive: 0.0637
10,CAACCACUAUGUUCUGUAUTT against PSMD3,inactive: 0.47
11,GAUUCGAAAUGGUGAGAAATT against ATP1A1,inactive: 0.271
12,CCAAAGAACUUAAGGAUUUTT against NEURL2,active: 1.39
13,GGUCUGACAUCUUCGAAUATT against ODZ2,inactive: -0.0233
14,CAACCAGCACAAUUCUGAATT against NFIX,inactive: 0.481
15,GUACUUCAGUGGAGUGAAATT against CDKL1,inactive: -0.28
16,AGGAAUAUGUGGUGGAAAATT against CBX1,inactive: 0
17,AGCUGGGAUUCAUCCUAAATT against PVALB,inactive: 0.11
18,GCAUUACAGCCCAUCAUGATT against SATB2,inactive: -0.389
19,CAAUGUUUACUACAAUGAATT against TUBB2B,inactive: 0.935
20,GGAAGUGAGUGAUCAAACATT against LPAR4,inactive: -0.321
21,CCAGUACUGAGGAACGCAATT against MED12,inactive: -0.896
22,CAACUGUUCCUGUAUUGAATT against SLCO4C1,inactive: -0.116

row,Sequence,median seed-adjusted z-score
1,UCACAGACGAGGCAUUUAATT against FTCD,inactive: -0.27
2,GCCUUUGGUUCGCAAGUUUTT against DYRK2,inactive: 0
3,AGACGAAUUUGGGUUUGAATT against NDUFAB1,inactive: -0.282
4,GCCUCUCACCUGAAUACAATT against GJB1,inactive: 0.152
5,GAAUGUCUGUGAGCAAGCATT against KPNA4,inactive: 0.457
6,CAUUAACAUUGUUCGCAAATT against ACO2,active: -1.57
7,CCAGAUAAGUUUAAGUAUATT against EIF2B1,inactive: 0.206
8,GGGAGUAUGCAGACAGUUUTT against PCYT2,inactive: 0.217
9,CUCAGUUGCUUAUAAAAAUTT against YWHAZ,inactive: 0.721
10,GGUGUAAUAAUGUCCUUUATT against SNRPF,active: -2.66
11,GGAACAUCGAGGACAUCUATT against ARHGEF4,inactive: 0.332
12,GGCAUGAAAUAAGGACUAATT against PARL,inactive: -0.0659
13,GGUGGACUCUGUUGCUAAATT against MAP2K6,inactive: -0.889
14,AGCUCCAUCUCGACCACAATT against FMOD,active: -1.32
15,AGCCUUUCACGGUCAUUCATT against PRIC285,inactive: 0
16,UGCGUGGAAGCUACACUUATT against ST3GAL3,inactive: -0.133
17,ACUGAAAGCUGAUUAAUUATT against KLK2,inactive: 0.0716
18,CCUCUGAACUCCUACAUGATT against BMP7,inactive: -0.893
19,GGUUUACUUAUGUCCAGAATT against E2F3,inactive: -0.215
20,GGAAAUUGUGGAUUCGGUATT against PGM1,inactive: 0.136
21,GCACAUAAGGAGGCGAUUATT against WDR33,active: 3.27
22,GGAUUUUGGAAAUCGGCUATT against MAN1B1,inactive: -0.88

# No new results follow: entries from further up.
row,Sequence,median seed-adjusted z-score
20,GGAAAUUGUGGAUUCGGUATT against PGM1,inactive: 0.136
21,GCACAUAAGGAGGCGAUUATT against WDR33,active: 3.27

# Next part:

row,Sequence,median seed-adjusted z-score
1,UGUCUAUCUUCAUCACCAATT against SCN1B,inactive: 0.331
2,CAAAGUCUCAAGCUUUGUATT against GZMB,inactive: -0.0378
3,GGGAAAGUCUUCAAAUACATT against ZNF485,inactive: 0.445
4,GCCGAGUCCUUUUCCUAGATT against IKZF2,inactive: 0.514
5,UCUUCUACCUAAUCCGCAATT against ADORA1,inactive: 0.022
6,GCAAUACACGUUUCCUUGATT against KRTAP2-2,inactive: -0.212
7,GGUGGAAACUGGGACAAUATT against RPS6KA6,inactive: -0.0821
8,GGCGAGCUCUUUUUCUUCATT against MMP11,inactive: -0.354
9,GAAAUCUUCUUACGAAAAATT against XPO7,inactive: 0.546
10,CGAAAUCUUUUUGAACGAUTT against SUCLG1,inactive: -0.63
11,UGACCGUUUUGGCAAUCCATT against HBG1,inactive: -0.716
12,CACCUUCGAUGUUGAGAAATT against SPAG4,inactive: -0.219
13,AGAUCUUUGGAGUGCCUAATT against LTK,inactive: -0.0881
14,GGCAUCCGCUUGUACUACATT against DBH,inactive: 0.337
15,CAAGUACUGUGGUAAAUCUTT against PRDM14,inactive: 0.316
16,GGAUGUGGGUUUACUCUUUTT against SLC1A5,inactive: -0.104
17,UCACUGUGGUGUAUUUUAATT against PDP2,inactive: -0.0726
18,GUAACAAAAGUAAAUCCAATT against VAX1,inactive: 0.937
19,GGGACGUGACCUUGACUUATT against RAMP1,inactive: -0.031
20,GGAAUAACAAUGUGAUAAATT against PNLIPRP1,inactive: -0.725

# — PubChem BioAssay AID1347426 (Functional Genomics Laboratory (NCATS/FGL), 2020)
